Source: the supplement of paper PMC4604168 (melanoma cell lines)
This is one part of the list. Single values are uncertain, as repeats are few or missing.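 Imaging used 1,536-well plates; nuclei positive for cleaved PARP by antibody were divided by total DNA-stained nuclei to yield the apoptosis fraction. Doses for screening kept most cells viable, and cell lines differ markedly in resting and induced cleaved-PARP levels.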

These compounds were tested on MeWo (assay: cleaved PARP positive nuclei fraction relative to DMSO control; melanoma cells; higher = more apoptosis). Conditions: library dose: low library concentration; 72 h.

SMILES	cleaved PARP positive nuclei fraction [%]
C[C@]12O[C@H](C[C@]1(O)CO)n1c3ccccc3c3c4c(c5c6ccccc6n2c5c31)CNC4=O [Lestaurtinib] + COc1ccc(COc2ccc(Cc3cnc(N)nc3N)cc2OC)cc1 [GW2580] (first compound 0.004 µM, partner dose 1 µM)	73.1
Cc1nc(Nc2ncc(C(=O)Nc3c(C)cccc3Cl)s2)cc(N2CCN(CCO)CC2)n1 [dasatanib] + C/C(O)=C(\C#N)C(=O)Nc1cc(Br)ccc1Br [LFM-A13] (first compound 0.004 µM, partner dose 2 µM)	39.2
Cc1cc(SCc2sc(-c3ccc(C(F)(F)F)c(F)c3)nc2C)ccc1OCC(=O)O + Cc1cc([N+](=O)[O-])ccc1NS(=O)(=O)c1cc(Cl)ccc1Cl [FH535] (first compound 2 µM, partner dose 1 µM)	48.9
O=S(=O)(c1ccccc1)N(CC(F)(F)F)c1ccc(C(O)(C(F)(F)F)C(F)(F)F)cc1 + C/C(O)=C(\C#N)C(=O)Nc1cc(Br)ccc1Br [LFM-A13] (first compound 1.4 µM, partner dose 2 µM)	227
O=C(Oc1ccc([N+](=O)[O-])cc1)N1CCC(C(O)(c2ccc3c(c2)OCO3)c2ccc3c(c2)OCO3)CC1 + CCCCCCCCCCCC1=C(O)C(=O)C=C(O)C1=O [Embelin] (first compound 1 µM, partner dose 1.2 µM)	28.9
Cn1cncc1[C@@](N)(c1ccc(Cl)cc1)c1ccc2c(c1)c(-c1cccc(Cl)c1)cc(=O)n2C [tipifarnib] + Cc1cc(SCc2sc(-c3ccc(C(F)(F)F)c(F)c3)nc2C)ccc1OCC(=O)O [GW0742] (first compound 0.01 µM, partner dose 2 µM)	43.3
